Assay results taken from the supplement of paper PMC8090911.
Structures can show the parent of a compound that is named as a salt. This is one part of the list. Many values rest on one well or one pass, so single values are uncertain.

What follows are compounds tested on p95-ErbB2-MCF7 (assay: perinuclear lysosome accumulation (PNLA, size of LAMP2 puncta), robust Z-score vs plate median; higher = more perinuclear lysosome accumulation (reversal of invasive lysosome distribution)). Conditions: 5 µM; 24 h.

| SMILES | perinuclear lysosome accumulation |
| --- | --- |
| CN(C)CCCN1c2ccccc2CCc2ccc(Cl)cc21 [Clomipramine hydrochloride] | 1.12 |
| Cc1cc(NC(=O)C2=C(O)c3ccccc3S(=O)(=O)N2C)no1 [Isoxicam] | -0.695 |
| Cc1cc(C(C)(C)CC(C)(C)C)ccc1OCCOCC[N+](C)(C)Cc1ccccc1 [Methyl benzethonium chloride] | 5.02 |
| CN1CCN(CCCN2c3ccccc3Sc3ccc(S(=O)(=O)N(C)C)cc32)CC1 [Thioproperazine dimesylate] | 2.13 |
| O=C(O)Cc1ccccc1Nc1c(Cl)cccc1Cl [Diclofenac sodium] | -2.18 |
| CC(=O)Oc1cc(C(F)(F)F)ccc1C(=O)O [Triflusal] | 0.567 |
| CS(=O)(=O)c1ccc([C@@H](O)[C@@H](CO)NC(=O)C(Cl)Cl)cc1 [Thiamphenicol] | 0.694 |
| CC(C)Cc1ccc([C@H](C)C(=O)O)cc1 [S-(+)-ibuprofen] | -0.434 |
| C[C@]12C=CC(=O)C=C1CC[C@@H]1[C@@H]2[C@@H](O)C[C@@]2(C)[C@H]1CC[C@]2(O)C(=O)CO [Prednisolone] | -1.02 |
| O=c1[nH]cc(F)c(=O)[nH]1 [5-fluorouracil] | -3.61 |
| O=C1C(CC[S+]([O-])c2ccccc2)C(=O)N(c2ccccc2)N1c1ccccc1 (configuration not stated) [Sulfinpyrazone] | 0.27 |
| NS(=O)(=O)c1cc2c(cc1Cl)N=C(CSCc1ccccc1)NS2(=O)=O [Benzthiazide] | 1.18 |
| CC(=O)O[C@]1(C(C)=O)CC[C@H]2[C@@H]3C=C(C)C4=CC(=O)CC[C@@H]4[C@H]3CC[C@@]21C [Nomegestrol acetate] | -0.248 |
| COC(=O)[C@H]1[C@H]2C[C@@H]3c4[nH]c5cc(OC)ccc5c4CCN3C[C@H]2C[C@@H](OC(=O)c2cc(OC)c(OC)c(OC)c2)[C@@H]1OC [Reserpine] | 0.29 |
| CCOC(=O)Nc1ccc2c(c1)N(C(=O)CCN1CCOCC1)c1ccccc1S2 [Moricizine hydrochloride] | -3.1 |
| CC(C)NCC(O)c1ccc(NS(C)(=O)=O)cc1 (configuration not stated) [Sotalol hydrochloride] | 0.403 |
| C#C[C@]1(O)CC[C@H]2[C@@H]3CCc4cc(OC)ccc4[C@H]3CC[C@@]21C [Ethynylestradiol 3-methyl ether] | 0.406 |
| CC(=O)N1CCN(c2ccc(OCC3COC(Cn4ccnc4)(c4ccc(Cl)cc4Cl)O3)cc2)CC1 (configuration not stated) [Ketoconazole] | 2.58 |
| CCN(CC)CCCC(C)Nc1c2ccc(Cl)cc2nc2ccc(OC)cc12 (configuration not stated) [Quinacrine dihydrochloride dihydrate] | 8.01 |
| CCCCCCCCCCCCCCCC[N+](C)(C)CCN(Cc1ccc(OC)cc1)c1ncccn1 [Thonzonium bromide] | 4.43 |
| CS(=O)(=O)Nc1ccc([N+](=O)[O-])cc1Oc1ccccc1 [Nimesulide] | 0.15 |
| COc1cc(C)nc(-n2nc(C)cc2OC)n1 [Epirizole] | -0.564 |
| CCn1cc(C(=O)O)c(=O)c2cc(F)c(N3CCNC(C)C3)c(F)c21 (configuration not stated) [Lomefloxacin hydrochloride] | -1.01 |
| CNC(=C[N+](=O)[O-])NCCSCc1csc(CN(C)C)n1 [Nizatidine] | -2.21 |

An excerpt of these results, with bars between the fields.
SMILES | perinuclear lysosome accumulation
CCN(CC)CCCC(C)Nc1c2ccc(Cl)cc2nc2ccc(OC)cc12 (configuration not stated) [Quinacrine dihydrochloride dihydrate] | 8.01
CCCCCCCCCCCCCCCC[N+](C)(C)CCN(Cc1ccc(OC)cc1)c1ncccn1 [Thonzonium bromide] | 4.43

(cont.)

| SMILES | perinuclear lysosome accumulation |
| --- | --- |
| C[C@]12C=CC(=O)C=C1CC[C@@H]1[C@@H]2C(=O)C[C@@]2(C)[C@H]1CC[C@]2(O)C(=O)CO [Prednisone] | -1.35 |
| C[C@@H]1CN(c2c(F)c(N)c3c(=O)c(C(=O)O)cn(C4CC4)c3c2F)C[C@H](C)N1 [Sparfloxacin] | 1.49 |
| CC[C@]12CCCN3CCc4c(n(c5ccccc45)C(=O)C1)[C@@H]32 [Eburnamonine (-)] | 0.936 |
| CCn1cc(C(=O)O)c(=O)c2cc(F)c(N3CCN(C)CC3)cc21 [Pefloxacine] | -2.27 |
| CCc1cc(C(N)=S)ccn1 [Ethionamide] | -1 |
| CCC(=O)[C@@]1(C)[C@H](C)C[C@H]2[C@@H]3CCC4=CC(=O)C=C[C@]4(C)[C@H]3[C@@H](O)C[C@@]21C [Rimexolone] | -0.461 |
| CN(N=O)C(=O)N[C@@H](C=O)[C@@H](O)[C@H](O)[C@H](O)CO [Streptozotocin] | 0.36 |
| O=C(N/N=C/c1ccc([N+](=O)[O-])o1)c1ccc(O)cc1 [Nifuroxazide] | -1.26 |
| CN1CCN(C(c2ccccc2)c2ccc(Cl)cc2)CC1 (configuration not stated) [Chlorcyclizine hydrochloride] | 1.4 |
| O=C1C=CC(=O)c2c1ccc1c2ccc2ccccc21 [Chrysene-1,4-quinone] | -2.89 |
| CC(C)(O/N=C(\C(=O)N[C@@H]1C(=O)N2C(C(=O)[O-])=C(C[n+]3ccccc3)CS[C@H]12)c1csc(N)n1)C(=O)O [Ceftazidime pentahydrate] | -1.43 |
| Cc1c(Cl)cccc1Nc1ncccc1C(=O)O [Clonixin Lysinate] | 0.902 |
| C[C@H]1[C@H](NC(=O)/C(=N\OC(C)(C)C(=O)O)c2csc(N)n2)C(=O)N1S(=O)(=O)O [Aztreonam] | 0.0653 |
| CNCCC=C1c2ccccc2CCc2ccccc21 [Nortriptyline hydrochloride] | 4.39 |
| CCc1c2c(nc3ccc(OC(=O)N4CCC(N5CCCCC5)CC4)cc13)-c1cc3c(c(=O)n1C2)COC(=O)[C@]3(O)CC [Irinotecan Hydrochloride] | 1.92 |
| COc1cc2nc(N3CCN(C(=O)C4CCCO4)CC3)nc(N)c2cc1OC (configuration not stated) [Terazosin hydrochloride] | 0.0587 |
| Nc1ccc(S(=O)(=O)Nc2ccc(Cl)nn2)cc1 [Sulfachloropyridazine] | -0.18 |
| CN(C)CCCOc1nn(Cc2ccccc2)c2ccccc12 [Benzydamine hydrochloride] | -0.415 |
| C#C[C@]1(O)CC[C@H]2[C@@H]3[C@H](C)CC4=C(CCC(=O)C4)[C@H]3CC[C@@]21C [Tibolone] | -1.68 |
| CC(=O)OCC(=O)[C@@]1(O)CC[C@H]2[C@@H]3CCC4=CC(=O)C=C[C@]4(C)[C@@]3(F)[C@@H](O)C[C@@]21C [Isoflupredone acetate] | -1.1 |
| CC(=O)Oc1cc(C(C)C)c(OCCN(C)C)cc1C [Moxisylyte hydrochoride] | -0.15 |
| CC(c1cc2ccccc2s1)N(O)C(N)=O (configuration not stated) [Zileuton] | 2.74 |
| COc1cc(C)c(/C=C/C(C)=C/C=C/C(C)=C/C(=O)O)c(C)c1C [Acitretin] | -0.274 |
| CN(C)CCC=C1c2ccccc2C=Cc2ccccc21 [Cyclobenzaprine hydrochloride] | 0.972 |

| SMILES | perinuclear lysosome accumulation |
| --- | --- |
| C[N+]1(C)CCC(=C(c2ccccc2)c2ccccc2)CC1 [Diphemanil methylsulfate] | -0.705 |
| NS(=O)(=O)c1cc2c(cc1Cl)NCNS2(=O)=O [Hydrochlorothiazide] | -2.54 |
| CNNCc1ccc(C(=O)NC(C)C)cc1 [Procarbazine hydrochloride] | -1.99 |
| O=c1[nH]c(=O)n([C@H]2C[C@H](O)[C@@H](CO)O2)cc1F [Floxuridine] | 0.478 |
| CC(=O)Oc1cccc2c1C(=O)c1c(OC(C)=O)cc(C(=O)O)cc1C2=O [Diacerein] | 0.213 |
| C=C1C[C@H]2[C@@H]3C=C(C)C4=CC(=O)CC[C@]4(C)[C@H]3CC[C@]2(C)[C@@]1(OC(C)=O)C(C)=O [Melengestrol acetate] | -2.38 |
| Nc1ccc(S(=O)(=O)c2ccc(N)cc2)cc1 [Dapsone] | 2.29 |
| OC[C@H]1O[C@@H](Oc2ccc(O)cc2)[C@H](O)[C@@H](O)[C@@H]1O [Arbutin] | -0.526 |
| N=C(N)NCC1COC2(CCCCC2)O1 (configuration not stated) [Guanadrel sulfate] | -1.17 |
| CC1(C)OC(=O)NC1=O [Dimethadione] | -1.21 |
| Nc1ccc(C(=O)NCC(=O)O)cc1 [Aminohippuric acid] | 0.956 |
| COc1ccc(NS(=O)(=O)c2ccc(N)cc2)nn1 [Sulfamethoxypyridazine] | 0.0462 |
| Cn1nnnc1SCC1=C(C(=O)O)N2C(=O)[C@@H](NC(=O)[C@H](O)c3ccccc3)[C@H]2SC1 [Cefamandole sodium salt] | -0.054 |
| CCC[C@H](N[C@@H](C)C(=O)N1[C@H](C(=O)O)C[C@@H]2CCCC[C@@H]21)C(=O)OCC [Perindopril] | -2.66 |
| CO[C@@H]1[C@@H](OC(N)=O)[C@@H](O)[C@H](Oc2ccc3c(O)c(NC(=O)c4ccc(O)c(CC=C(C)C)c4)c(=O)oc3c2C)OC1(C)C [Novobiocin sodium salt] | 1.17 |
| CCN1CCN(C(=O)N[C@@H](C(=O)N[C@@H]2C(=O)N3[C@@H]2SC(C)(C)[C@@H]3C(=O)O)c2ccccc2)C(=O)C1=O [Piperacillin sodium salt] | 0.0643 |
| CN(C)CCC[C@@]1(c2ccc(F)cc2)OCc2cc(C#N)ccc21 [Escitalopram] | 0.666 |
| CCCC(=O)Nc1ncnc2c1ncn2[C@@H]1O[C@@H]2COP(=O)(O)O[C@H]2[C@H]1OC(=O)CCC [Bucladesine sodium salt] | -0.00782 |
| CN1CCCC(n2nc(Cc3ccc(Cl)cc3)c3ccccc3c2=O)CC1 (configuration not stated) [Azelastine HCl] | 2.59 |
| CN1CCCCC1CCN1c2ccccc2Sc2ccc([S+](C)[O-])cc21 (configuration not stated) [Mesoridazine besylate] | 1.19 |
| NC(=O)N/N=C/c1ccc([N+](=O)[O-])o1 [Nitrofural] | -0.678 |
| COc1ccc2[nH]cc(CCNC(C)=O)c2c1 [Melatonin] | -0.00768 |
| NC[C@H]1O[C@H](O[C@H]2[C@H](O[C@@H]3O[C@H](CO)[C@@H](O)[C@H]3O)[C@@H](O)[C@H](N)C[C@@H]2N)[C@H](N)[C@@H](O)[C@@H]1O [Ribostamycin sulfate salt] | 0.024 |
| COc1ccc(C(=O)NCc2cccnc2)cc1C(=O)NCc1cccnc1 [Picotamide monohydrate] | -0.352 |
